# Values quoted from earlier work, collected in US20250057814A1, “ENDODONTIC BIOFILM-ERADICATION TECHNIQUE UTILIZING A DUAL-SYSTEM INTRACANAL MEDICATION” (priority 2023, published 2025).
# At least one compound was matched to its structure with a doubt left. Marks after values point to notes of the source that are not given here.
# Key:
# [1] = system: Streptococcus sanguis 804; details: reference 114, cited from earlier work
# [2] = system: Pseudomonas Aeruginosa ATCC 27853; details: reference 26, cited from earlier work
smiles,measurement,setting,value
C[C@H]1c2cccc(O)c2C(=O)C2=C(O)[C@]3(O)C(=O)C(C(N)=O)=C(O)[C@@H](N(C)C)[C@@H]3[C@@H](O)[C@@H]21 [Doxycycline],Concentration effective against biofilm phenotype,"[1]; biofilm, concentration required for >99.9% reduction",3.15^d μg/ml
same,MBC of planktonic phenotype,[1]; planktonic Streptococcus sanguis 804,0.063 (MBC) ^ μg/ml
C[C@@H](O)[C@H]1C(=O)N2C(C(=O)O)=C(SCCN=CN)C[C@H]12 [Imipenem],Concentration effective against biofilm phenotype,"[2]; biofilm, minimal biofilm eradication concentration",">1,024^b μg/ml"
same,MIC of planktonic phenotype,[2]; planktonic Pseudomonas Aeruginosa ATCC 27853,1 (MIC) μg/ml
